This is one part of the list.

This assay relates to T1, CTL2-GFP (C. trachomatis L2/434/Bu, GFP-expressing).
T1 construct: L2/434/Bu, GFP-expressing
The arrangement: species or system HeLa; Intracellular C. trachomatis growth in HeLa cells, bulk GFP fluorescence relative to DMSO. The conditions noted are these: bulk GFP, single well; 28.5 h, 10 µM; inhibitor.
For the molecule `O=[N+]([O-])c1ccc(CN2CCN(c3nccnc3Oc3ccc(F)cc3)CC2)cc1` [CBK083015T], the “% of control remaining” value worked out at 116.359%.

Regarding `Cc1ccccc1Nc1nc(N)nc(CN2CCOC3CCCC32)n1` (stereo not shown) [CBK305181], the “% of control remaining” value came out at 68.1927%.

Consider `COc1ccc(S(=O)(=O)NCCN2CCOCC2)c(Cl)c1Cl` [CBK269999], for which the “% of control remaining” value is 132.548%.

Take `CC(c1ccncc1)N1Cc2cccc(C(=O)O)c2C1=O` (stereo not shown) [CBK291137]: the “% of control remaining” value was determined as 120.309%.

For `Cn1c(=O)c2c(O)cc(=O)n(Cc3ccccc3)c2n(C)c1=O` [CBK291245], the “% of control remaining” value came to 155.128%.

For the molecule `CC(=O)N1CCn2nc(C(=O)N(CCO)Cc3ccccc3)cc2C1` [CBK306769], the “% of control remaining” value is 109.836%.

As for `COC(=O)Cn1c(=O)sc2cccc(Cl)c21` [CBK026076], the “% of control remaining” value was 101.761%.

For `O=C(NC1Cc2ccccc2C1)c1ccc2ncccc2c1` [CBK200354], the “% of control remaining” value amounted to 158.816%.

Consider `O=c1[nH]c2ncc(-c3ccco3)nc2n1Cc1ccc(F)c(Cl)c1` [CBK064393], for which the “% of control remaining” value came out at 78.4198%.

Regarding `CC(=O)Nc1ccc(-c2ccc(=O)n3c2[C@@H]2C[C@@H](CN(C4CCOCC4)C2)C3)cc1` [CBK289201], the “% of control remaining” value worked out at 125.945%.

As for `O=c1[nH]c(=O)c2c3c(sc2[nH]1)CCCC3` [CBK027724], the “% of control remaining” value was found to be 96.0277%.

With `Cc1ccc(S(=O)(=O)CC(=O)N2CCCC3(CCN(Cc4ccccc4)C3)C2)cc1` (stereo not shown) [CBK137098T], the “% of control remaining” value turned out to be 231.323%.

Regarding `CCCCN1C(=O)N(c2nnc(C(C)(C)C)s2)C(=O)C1c1ccc(Cl)c(Cl)c1` (stereo not shown) [CBK085921], the “% of control remaining” value was found to be 114.058%.

In the case of `CCc1nc2ccc(C(=O)N(C)CCN(C)C)cn2c1N(CC)CCOC` [CBK146018], the “% of control remaining” value came to 110.312%.

Regarding `COc1cc(NC(=S)NCCN2CCOCC2)c(OC)cc1Cl` [CBK265888], the “% of control remaining” value came to 114.842%.

Take `N#Cc1ccc(C(=O)NCc2ccc(OC3CCNCC3)cc2)cc1` [CBK036358T]: the “% of control remaining” value is 117.758%.

With `O=C(NCc1csc(-c2ccccc2)n1)C(F)(F)F` [CBK092340], the “% of control remaining” value stood at 102.062%.

As for `Cc1cccc(=O)n1CCCn1cc(-c2ncc[nH]2)nn1` [CBK307401], the “% of control remaining” value was determined as 116.598%.

Consider `Cc1cc(Nc2ccc(I)cc2)n2ncnc2n1` [CBK027364], for which the “% of control remaining” value turned out to be 111.731%.

`CC(C)[C@H](CO)Nc1nccnc1-c1ccncc1` [CBK089030]: the “% of control remaining” value was determined as 103.688%.

With `COc1cc(CCN2CCN(C(C)C)CC2)cc(OC)c1OC` [CBK028881C], the “% of control remaining” value stood at 112.358%.

For the molecule `Cc1nc2cc(OCc3nc(C(=O)NC4CCNC4=O)co3)ccc2s1` (stereo not shown) [CBK307298], the “% of control remaining” value stood at 112.984%.

On to `CN1CCN(C(=O)c2ccc(-c3cccc(C(=O)NCCO)c3)nc2N(C)C)CC1` [CBK076581], for which the “% of control remaining” value turned out to be 100%.

Regarding `COc1ccccc1C/C(N)=N/OC(=O)COc1cccc2ccccc12` [CBK263012], the “% of control remaining” value came out at 120.138%.

`O=C1COc2ccccc2CCCC[C@@H]2CN(C(=O)CN3C(=O)CNC3=O)CC[C@H]2N1` [CBK292047]: the “% of control remaining” value is reported as 115.814%.

For the molecule `c1coc(C2N3CCC4(CC3)c3[nH]c5ccccc5c3CCN24)c1` (stereo not shown) [CBK282862], the “% of control remaining” value is recorded as 98.5635%.

For `COc1ccc(-n2c(SCCc3ccccc3)nnc2-c2ccncc2)cc1` [CBK265618], the “% of control remaining” value is 100%.

For the molecule `CCOC(=O)C1CCN(Cc2cccs2)CC1` [CBK026999], the “% of control remaining” value was found to be 154.958%.

In the case of `CCOC(=O)c1ccc(NS(=O)(=O)c2cc(Cl)ccc2Cl)cc1` [CBK077746], the “% of control remaining” value was found to be 102.43%.

As to `O=C(O)COc1ccccc1/C=N\N1CCN(Cc2ccccc2Cl)CC1` [CBK020891], the “% of control remaining” value was determined as 114.682%.

For `CC(C)c1ccc(CNC(=O)c2ccc3[nH]ccc3c2)cc1` [CBK161754], the “% of control remaining” value is 178.286%.

On to `CC1CCCN(CC(O)COCc2ccc3c(c2)OCO3)C1` (stereo not shown) [CBK262830C], for which the “% of control remaining” value stood at 107.391%.

Turning to `CC(C)(C)N(Cc1ccccc1)C(=O)Cn1nc(C(=O)O)c2ccccc2c1=O` [CBK297498], the “% of control remaining” value came to 90.7286%.

With `CN1CC(C(=O)N2CCCC(c3cc4cccnc4[nH]3)C2)CC1=O` (stereo not shown) [CBK284958], the “% of control remaining” value amounted to 131.457%.

For `CN1CCN(c2cc(N)nc(N)n2)CC1` [CBK266102], the “% of control remaining” value is on record as 167.362%.

`CCc1nc2ccc(C(=O)N3CCCCC3)cn2c1N(C)CCC(C)C` [CBK146065]: the “% of control remaining” value is reported as 111.377%.

On to `Cc1cc2cc3c(nc2cc1C)OCCNC3` [CBK281939], for which the “% of control remaining” value is listed as 143.761%.

Take `O=C(CSCc1c(Cl)cccc1Cl)Nc1ccc(-c2nnc(-c3ccccc3)o2)cc1` [CBK267817]: the “% of control remaining” value amounted to 118.619%.

`O=S(=O)(Nc1nnc(Cc2ccc(Cl)cc2)s1)c1ccc(Cl)cc1` [CBK200048]: the “% of control remaining” value came out at 117.526%.

`O=C1N(c2cccc(Cl)c2)Cc2nc(=O)[nH]n21` [CBK288430]: the “% of control remaining” value is listed as 121.137%.

Take `Oc1ccc(-c2n[nH]c(=S)n2-c2ccccc2)cc1` [CBK014887]: the “% of control remaining” value turned out to be 113.205%.

In the case of `c1ccc(Nc2[nH]nnc2-c2ccccc2)cc1` [CBK261015], the “% of control remaining” value turned out to be 81.2862%.

Regarding `CCC(NC(=O)c1ccc(C#CC2(O)CCCCC2)cc1)C(=O)O` (stereo not shown) [CBK287160], the “% of control remaining” value is reported as 113.837%.

Turning to `CC1=C[C@@H](CN2CCC(O)CC2)[C@H](C(C)C)C[C@H]1Cc1nnc(-c2ccccc2)o1` [CBK289220], the “% of control remaining” value was found to be 121.378%.

Take `N#C/C(=C\c1ccc(OCC(=O)c2ccc(F)cc2)cc1)c1nc(-c2cc3ccccc3oc2=O)cs1` [CBK266769]: the “% of control remaining” value is reported as 130.597%.

On to `Cc1nn(C)cc1C(=O)N1CCC(c2cc3c(C)cccc3cn2)CC1` [CBK282231], for which the “% of control remaining” value is 129.481%.

On to `COc1ccc(C)cc1NC(=O)C1CC(=O)Nc2ncnn21` (stereo not shown) [CBK270274], for which the “% of control remaining” value turned out to be 104.805%.

For the molecule `Cc1cc(NC(=O)N2CCN(CCNC(=O)C3CCCC3)CC2)no1` [CBK305064], the “% of control remaining” value came to 131.059%.

As for `COc1ccc(C(=O)N2CCN(Cc3ccc(SC)cc3)CC2)cc1` [CBK058613], the “% of control remaining” value is listed as 46.0597%.

As for `CCOC(=O)CCNC(C)C1COc2ccccc2O1` (stereo not shown) [CBK074284G], the “% of control remaining” value was found to be 110.472%.

Turning to `COc1ccc(-c2ncc(OCC3CCCN3C)nc2N)c(OC)c1` (stereo not shown) [CBK145091], the “% of control remaining” value amounted to 97.279%.

With `Cc1cc(C)cc(N(CC(=O)Nc2ccc(C)c(Cl)c2)S(=O)(=O)c2ccccc2)c1` [CBK264109], the “% of control remaining” value came out at 88.2597%.

In the case of `Cc1ccccc1-n1ccn(S(=O)(=O)c2ccccc2)c1=O` [CBK106567], the “% of control remaining” value was found to be 164.445%.

Take `CC(=O)NCCSc1nccnc1NC(C)C` [CBK105289]: the “% of control remaining” value came out at 115.411%.

Consider `NS(=O)(=O)c1ccc(NCc2cc(Cl)ccc2OCc2ccc(F)cc2)cc1` [CBK268196], for which the “% of control remaining” value came to 94.7285%.

Turning to `COc1cccc(OCCOc2nsnc2N2CCNCC2)c1` [CBK200007], the “% of control remaining” value is 142.314%.

As for `Fc1ccc(CNc2cncc(-c3cc4ccccc4o3)n2)cc1` [CBK066005], the “% of control remaining” value worked out at 111.19%.

As to `Cn1c(-c2ccccc2)cnc1NC(=O)C1CCN(S(=O)(=O)c2ccc(F)cc2)C1` (stereo not shown) [CBK285709], the “% of control remaining” value stood at 119.489%.

On to `CCO[C@H]1CN(C)C[C@@H]1NC(=O)c1cccc2c1NCCC2` [CBK307269], for which the “% of control remaining” value is 129.326%.

As for `COc1ccc(-c2cc(C(F)(F)F)nc(SCC(=O)Nc3cccnc3)n2)cc1OC` [CBK266148], the “% of control remaining” value turned out to be 114.715%.

With `Cc1cccc(OCC(=O)Nc2ncccc2OCCCC#N)c1` [CBK305918], the “% of control remaining” value is recorded as 130%.

As for `O=C(O)c1ccc(C(=O)O)c2c(-c3ccc(C(=O)O)c4c(C(=O)O)ccc(C(=O)O)c34)ccc(C(=O)O)c12` [CBK261267], the “% of control remaining” value worked out at 100%.

Regarding `Cc1nn(-c2ccc(F)cc2)c2[nH]c(=O)c(CNC(C)C)cc12` [CBK283119], the “% of control remaining” value is on record as 112.067%.

On to `CC(=O)Nc1cccc(-n2nnnc2SC2CCCCC2=O)c1` (stereo not shown) [CBK304600], for which the “% of control remaining” value stood at 132.14%.

Regarding `CN(C(=O)c1ccco1)c1nc2c(s1)CCc1c-2cnn1C` [CBK281928], the “% of control remaining” value is given as 101.603%.

Turning to `COc1ccc2c(c1)sc1ncc(C#N)n12` [CBK016716], the “% of control remaining” value came out at 89.4923%.

On to `COC(=O)CCc1ccc(S(=O)(=O)N2CCCN(Cc3ccc(Cl)c(C(F)(F)F)c3)CC2)cc1` [CBK062995], for which the “% of control remaining” value is on record as 120.782%.

On to `COc1ccc(Br)cc1C(=O)NC(=S)Nc1cc(Cl)c(O)c(Cl)c1` [CBK265979], for which the “% of control remaining” value is listed as 110.937%.

`CC(C)C(NS(=O)(=O)c1ccc(Oc2ccccc2Cl)cc1)C(=O)O` (stereo not shown) [CBK267195]: the “% of control remaining” value stood at 150.137%.

For the molecule `COc1cc(/C=C2/SC(=S)N(CC(=O)O)C2=O)cc(Br)c1OCc1ccccn1` [CBK265598], the “% of control remaining” value was 100.537%.

For `COc1ccccc1Cc1noc(COc2cccc(C)c2C)n1` [CBK265521], the “% of control remaining” value turned out to be 118.344%.

`Cc1ccc(S(=O)(=O)N(CC(=O)Nc2ccc(Cl)cc2C)c2cccc(Cl)c2C)cc1` [CBK264021]: the “% of control remaining” value amounted to 108.352%.

As to `O=C(O)COc1cccc(NS(=O)(=O)c2ccc(Br)cc2)c1` [CBK286911], the “% of control remaining” value was determined as 107.3%.

Consider `CC(C)CC(C(=O)O)N1C(=O)/C(=C2/C(=O)Nc3ccc(Br)cc32)SC1=S` (stereo not shown) [CBK261610], for which the “% of control remaining” value turned out to be 113.398%.

`COc1cccc(Oc2nccnc2/C=C/c2ccccc2)c1` [CBK106877]: the “% of control remaining” value was determined as 83.3577%.

In the case of `Cc1cc(Br)ccc1S(=O)(=O)N(C)c1ccc(N2CCNCC2)c2ccccc12` [CBK016170C], the “% of control remaining” value worked out at 29.736%.

With `CC(C)C1c2cccn2CCN1C(=O)c1cc(-c2ccccn2)n[nH]1` (stereo not shown) [CBK283223], the “% of control remaining” value was 129.569%.

Consider `COc1ccc(C)cc1C(O)CN1CCOC(c2ccc(F)cc2)C1` (stereo not shown) [CBK298264], for which the “% of control remaining” value is listed as 121.57%.

`Cc1cccc(-c2nccnc2C2CCCN(C(=O)COc3ccc(F)cc3)C2)c1` (stereo not shown) [CBK286241]: the “% of control remaining” value was 107.677%.

The values are drawn from publication PMC12040169 (PLOS Biology, 2025).
